Experimental data published in patent publication US20140178899A1.
No constants are given. Whether binding was seen depends on the method and setting. Binding seen in cells or lysates may run through a third protein. Some results given as binding are weak or reduced against the parent protein; the word gives no strength. For some assays here: Tags and fused reporters may be left off the sequences shown.

Sequences of proteins named here, by UniProt entry; tags and fusion partners are left off. A change or cut given only in a name is not applied to a line headed by its entry.
UniProt Q07817: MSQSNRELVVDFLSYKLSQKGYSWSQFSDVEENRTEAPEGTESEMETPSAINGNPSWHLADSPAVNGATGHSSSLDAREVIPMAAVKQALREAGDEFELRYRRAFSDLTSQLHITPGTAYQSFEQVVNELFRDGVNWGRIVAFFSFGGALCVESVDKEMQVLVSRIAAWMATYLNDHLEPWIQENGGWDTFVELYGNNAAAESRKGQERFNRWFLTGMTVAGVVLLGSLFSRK
UniProt P10415: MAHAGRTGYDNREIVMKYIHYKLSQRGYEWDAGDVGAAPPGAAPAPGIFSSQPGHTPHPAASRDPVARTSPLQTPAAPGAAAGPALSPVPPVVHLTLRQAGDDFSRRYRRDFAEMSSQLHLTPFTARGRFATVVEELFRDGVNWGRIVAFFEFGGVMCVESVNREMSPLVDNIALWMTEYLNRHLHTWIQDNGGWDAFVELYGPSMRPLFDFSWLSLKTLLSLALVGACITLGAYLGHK
UniProt Q14457: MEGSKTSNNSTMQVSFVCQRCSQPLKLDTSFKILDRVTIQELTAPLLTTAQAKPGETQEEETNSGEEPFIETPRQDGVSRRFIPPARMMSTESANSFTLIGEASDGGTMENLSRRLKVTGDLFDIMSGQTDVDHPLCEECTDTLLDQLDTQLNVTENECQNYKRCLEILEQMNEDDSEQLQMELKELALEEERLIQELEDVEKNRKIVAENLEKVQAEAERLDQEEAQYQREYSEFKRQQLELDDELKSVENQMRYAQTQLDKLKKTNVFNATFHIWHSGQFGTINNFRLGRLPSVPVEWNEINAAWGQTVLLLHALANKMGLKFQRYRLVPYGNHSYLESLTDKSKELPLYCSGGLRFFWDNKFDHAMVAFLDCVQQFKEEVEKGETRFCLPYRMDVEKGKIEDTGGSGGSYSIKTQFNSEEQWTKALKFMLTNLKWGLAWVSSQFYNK

Key:
[1] = target: Bcl-XL (over-expressed by transfection in HEK293 cells) (UniProt Q07817); test: anti-Flag co-immunoprecipitation from co-transfected HEK293 cells
[2] = target: T1, HA-tagged activated DAPk (ΔCaM DAPk), lacking its calmodulin (CaM)-regulatory domain (UniProt P53355); test: anti-Flag co-immunoprecipitation from HEK293 cells co-transfected with HA-ΔCaM DAPk
T1 sequence: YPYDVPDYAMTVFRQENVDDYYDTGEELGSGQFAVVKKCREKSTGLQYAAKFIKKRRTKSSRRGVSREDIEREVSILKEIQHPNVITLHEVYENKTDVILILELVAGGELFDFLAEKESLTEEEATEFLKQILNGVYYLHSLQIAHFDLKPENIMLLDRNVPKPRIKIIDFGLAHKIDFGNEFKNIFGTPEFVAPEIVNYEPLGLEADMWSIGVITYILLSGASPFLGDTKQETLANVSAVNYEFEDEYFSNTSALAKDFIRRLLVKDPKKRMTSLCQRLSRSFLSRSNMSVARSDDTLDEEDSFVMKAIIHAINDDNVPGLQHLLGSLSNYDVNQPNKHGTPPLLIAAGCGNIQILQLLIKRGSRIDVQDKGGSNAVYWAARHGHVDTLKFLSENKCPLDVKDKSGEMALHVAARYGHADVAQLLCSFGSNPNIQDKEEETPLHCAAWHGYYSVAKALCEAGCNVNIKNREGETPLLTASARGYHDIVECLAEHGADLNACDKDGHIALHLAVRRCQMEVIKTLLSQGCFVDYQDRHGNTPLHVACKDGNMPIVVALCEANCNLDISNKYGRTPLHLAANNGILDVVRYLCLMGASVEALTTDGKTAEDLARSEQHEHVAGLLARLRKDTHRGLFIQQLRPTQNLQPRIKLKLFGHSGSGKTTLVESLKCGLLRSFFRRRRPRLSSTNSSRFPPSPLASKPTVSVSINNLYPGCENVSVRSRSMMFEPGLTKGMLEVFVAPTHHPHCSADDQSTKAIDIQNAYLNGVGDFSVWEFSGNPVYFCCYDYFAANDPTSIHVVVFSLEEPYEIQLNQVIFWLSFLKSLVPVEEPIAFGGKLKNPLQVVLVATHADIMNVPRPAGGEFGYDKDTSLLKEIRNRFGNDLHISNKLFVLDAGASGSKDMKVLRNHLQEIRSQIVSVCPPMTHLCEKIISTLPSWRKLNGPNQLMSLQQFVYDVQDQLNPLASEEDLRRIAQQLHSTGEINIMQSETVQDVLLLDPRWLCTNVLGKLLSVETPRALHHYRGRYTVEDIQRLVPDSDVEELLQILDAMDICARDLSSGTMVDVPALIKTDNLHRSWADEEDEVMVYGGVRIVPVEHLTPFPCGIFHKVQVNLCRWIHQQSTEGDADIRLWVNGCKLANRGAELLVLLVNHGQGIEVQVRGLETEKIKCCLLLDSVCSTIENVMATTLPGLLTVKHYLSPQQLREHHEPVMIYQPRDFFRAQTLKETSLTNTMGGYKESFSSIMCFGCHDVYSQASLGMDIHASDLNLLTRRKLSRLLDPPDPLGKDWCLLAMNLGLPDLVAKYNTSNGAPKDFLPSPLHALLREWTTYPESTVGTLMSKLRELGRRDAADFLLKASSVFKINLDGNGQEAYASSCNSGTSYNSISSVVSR

[3] = target: Bcl-XL (over-expressed by transfection in HEK293 cells) (UniProt Q07817); test: co-immunoprecipitation from co-transfected HEK293 cells
[4] = target: endogenous DAPk from HEK293T cell extracts (UniProt P53355); test: anti-Flag co-immunoprecipitation from HEK293T cells
HA-tagged DAPk = HA-tagged DAPk (UniProt P53355); test: anti-Flag co-immunoprecipitation from co-transfected HEK293 cells
[5] = target: Bcl-2 (co-transfected in HEK293T cells) (UniProt P10415); test: anti-Flag co-immunoprecipitation from co-transfected HEK293T cells, anti-Bcl-2 blot
[6] = target: Bcl-2 (co-transfected in HEK293T cells) (UniProt P10415); test: co-immunoprecipitation from co-transfected HEK293T cells
[7] = target: endogenous DAPk from HEK293T cell extracts (UniProt P53355); test: co-immunoprecipitation from HEK293T cells
[8] = target: endogenous DAPk from HEK293T cell extracts (UniProt P53355); test: GST pull-down from cell extract, Western blot
[9] = target: endogenous Bcl-2 pulled down from cell extracts (COS7 or HEK293T) (UniProt P10415); test: GST pull-down from cell extract, Western blot

binding [1]	binding [2]	binding [3]	binding [4]	binding (HA-tagged DAPk)	binding [5]	binding [6]	binding [7]	binding [8]	binding [9]	Substance
binds	binds	binds								Flag-Beclin-1 T119A (phospho-silencing mutant) (from UniProt Q14457 1-450)
	binds		binds	binds	binds	binds	binds			Flag-tagged Beclin-1 (wild type) (from UniProt Q14457 1-450)
								binds	binds	GST-Beclin-1 fusion protein (wild type, bacterially purified, not phosphorylated) (from UniProt Q14457 1-450)
